From PubChem BioAssay record AID912 (NCATS, 2007).

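A cell-based FRET test of anthrax lethal toxin entry, tracked through the 460 nm emission signal; the cell line is not named here.
Each compound was tested as a concentration series from about 0.0005 to 40 µM.
The number is the fitted AC50 of the 460 nm signal alone; lower values mean a more potent effect. A falling signal goes with compounds filed as inhibitors or cytotoxic, a rising one with activators or fluorescent compounds (inferred from the filed classes).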

Values are in µM.
Common to all entries: measured here: 460 nm channel.
Part of the compounds only, not a random draw; the main read-out is not listed here.
A potency from a partial, single-point or poor curve is only a rough figure.
The first word of each remark tells which way the curve ran; it can be opposite to the aim of the assay.

| Compound | AC50 (µM) | curve |
|---|---|---|
| `Cn1c(=O)c(-c2ccc(Cl)cc2)nc2cnc(OCc3ccccc3)nc21` | 12.59 | rising, partial curve |
| `CN1Cc2ccccc2[C@@H]2c3cccc4[nH]cc(c34)C[C@H]21` | 12.59 | falling, partial curve |
| `Cc1nnc(N2CCc3ccccc3C2)[nH]c1=O` | 7.943 | rising, partial curve |
| `Cc1cccc(S(=O)(=O)C(C#N)c2nc3ccccc3nc2N2CCOCC2)c1` (centres undefined) | 0.05012 | falling, full curve |
| `O=C(NCc1cccs1)C(Cc1ccccc1)NS(=O)(=O)c1cccs1` (centres undefined) | 5.012 | rising, partial curve |
| `CCOC(=O)c1ccc(OC(=O)CCCCCN=C(N)N)cc1` | 12.59 | falling, single point |
| `Cc1cc(C)c(C(=O)OCCNC(=O)c2cccnc2)cc1C` | 5.012 | rising, single point |
| `CCCC(=O)Nc1nnc(-c2cccc(OCC)c2)s1` | 31.62 | rising, single point |
| `O=S(=O)(c1ccccc1)N1CCC2(CCN(C(c3ccccc3)c3ccccc3)CC2)CC1` | 12.59 | falling, single point |
| `CNC(=O)O/N=C/C(C)(C)SC` | 31.62 | falling, single point |
| `COc1cccc2cc(C(=O)C3=C(O)C(=O)N(CCCN4CCOCC4)C3c3ccncc3)oc12` (centres undefined) | 0.1 | falling, full curve, poor fit |
| `O=C(Nc1nccs1)C1CCCN(S(=O)(=O)c2cccc3cccnc23)C1` (centres undefined) | 15.85 | falling, single point |
| `NS(=O)(=O)c1ccc(NC(=O)Nc2ccccc2F)cc1` | 0.1259 | falling, full curve |
| `Cc1cc2n(n1)C(c1c[nH]c3ccccc13)Nc1ccccc1-2` (centres undefined) | 10 | falling, single point |
| `CCc1nn(CC(=O)O)c(=O)c2ccccc12` | 5.012 | rising, single point |
| `Cc1ccccc1Nc1nc(N)nc(CN2C(=O)NC3(CCCCC3C)C2=O)n1` (centres undefined) | 10 | rising, partial curve |
| `COc1cc2ccc([C@H](C)NCC#N)cc2cc1OC` | 0.631 | falling, single point |
| `COc1ccc2c(c1)c1ncnc(N3CCN(Cc4ccc5c(c4)OCO5)CC3)c1n2C` | 1.585 | rising, partial curve, poor fit |
| `CN1CCC(=C2c3ccccc3CC(=O)c3sccc32)CC1` | 0.5012 | rising, full curve, poor fit |
| `Cc1ccc(-c2cn3c(n2)CCCC3)cc1` | 31.62 | falling, single point |
| `COC(=O)[C@H](CCSC)NC(=O)Nc1ccc(OC)cc1` | 0.07943 | rising, full curve, poor fit |
| `Oc1ccc2cc(SSc3ccc4cc(O)ccc4c3)ccc2c1` | 31.62 | falling, single point |
| `COc1cccc(C2C(C(=O)Nc3ccc(C)cc3C)=C(C)Nc3ncnn32)c1OC` (centres undefined) | 10 | rising, single point |
| `CCOc1ccccc1N1CCN(C(=O)Nc2cccc(Cl)c2)CC1` | 31.62 | falling, single point |
| `O=C(CSC1=NCCN1)Nc1ccccc1` | 0.631 | rising, single point |
| `Cn1c(C(=O)N2CCN(Cc3ccc4c(c3)OCO4)CC2)cc2c(=O)n(C)c3ccccc3c21` | 25.12 | falling, single point |
| `CC(=O)n1nc(-c2ccco2)nc1SCc1ccccc1` | 3.162 | falling, partial curve |
| `CCCCCn1c(N)c(C(=O)NCCN2CCOCC2)c2nc3ccccc3nc21` | 12.59 | rising, partial curve |
| `CN1CCc2c(c3ccccc3n2Cc2ccccc2)C1` | 2.512 | falling, partial curve |
| `Cc1ccc(S(=O)(=O)Cc2ccc(C(=O)N3CCN(c4cc(C)ccc4C)CC3)o2)cc1` | 3.981 | falling, partial curve |
| `CCOC(=O)c1ccccc1NC(=O)CN(c1ccccc1OCC)S(C)(=O)=O` | 15.85 | rising, single point |
| `Cc1cc(C)nc(SCC(=O)Nc2ncc3c(n2)CCCC3=O)n1` | 0.01585 | falling, full curve, poor fit |
| `CN(CCC(=O)Nc1ccc2c(c1)OCO2)Cc1ccccc1` | 5.012 | rising, partial curve |
| `Cc1nc2nc(-c3ccccc3)[nH]n2c(=O)c1Cc1ccccc1` | 0.631 | falling, full curve, poor fit |
| `Cc1nc2c(O)cccc2c(=O)[nH]1` | 12.59 | falling, single point |
| `CCn1c2ccccc2c2nc3cc(S(=O)(=O)N4CCOCC4)ccc3nc21` | 0.1585 | falling, full curve |
| `CC(C)(C)c1o[nH]c(=O)c1C[C@H](N)C(=O)O` | 3.981 | rising, single point |
| `COC(=O)c1ccc(NC(=O)CSc2nnc(CNc3ccc(OC)cc3)n2C)cc1` | 6.31 | rising, partial curve |
| `O=C(COC(=O)c1c2c(nc3ccccc13)CCCC2)Nc1ccc2c(c1)OCO2` | 15.85 | falling, single point |
| `O=C(c1ccco1)N1CCC2(CCCN(c3ccccn3)C2)CC1` | 12.59 | rising, partial curve |
| `Cn1cccc1C(=O)N1CCC2(CCCN(Cc3ccncc3)C2)CC1` | 10 | rising, single point |
| `Cc1ccc(C(=O)CSc2nnc(COc3cccc(C)c3)o2)cc1` | 12.59 | falling, single point |
| `COc1cc(NC(=O)c2ccco2)c(OC)cc1NC(=O)Nc1cccc(Cl)c1` | 12.59 | rising, partial curve |
| `C/C(CCC(=O)OC[C@@H]1O[C@H](C#Cc2ccccc2)C=C[C@@H]1Oc1ccc(C)cc1)=N/O[C@@H](C)c1cn([C@H](CO)Cc2ccccc2)nn1` | 3.162 | rising, partial curve |
| `Cc1nc2nc(-c3ccccc3)cn2nc1C` | 10 | rising, partial curve |
| `O=c1oc2c3c4c(cc2s1)CCCN4CCC3` | 10 | falling, partial curve |
| `CC#C[C@@]1(O)CC[C@H]2[C@@H]3CCC4=CC(=O)CCC4=C3[C@H](c3ccc(N(C)C)cc3)C[C@]21C` | 0.1585 | falling, full curve, poor fit |

Repeated from the top, 6 entries:

- Cn1c(=O)c(-c2ccc(Cl)cc2)nc2cnc(OCc3ccccc3)nc21 : AC50 12.59 µM (rising, partial curve)
- CN1Cc2ccccc2[C@@H]2c3cccc4[nH]cc(c34)C[C@H]21 : AC50 12.59 µM (falling, partial curve)
- Cc1nnc(N2CCc3ccccc3C2)[nH]c1=O : AC50 7.943 µM (rising, partial curve)
- Cc1cccc(S(=O)(=O)C(C#N)c2nc3ccccc3nc2N2CCOCC2)c1 (centres undefined) : AC50 0.05012 µM (falling, full curve)
- O=C(NCc1cccs1)C(Cc1ccccc1)NS(=O)(=O)c1cccs1 (centres undefined) : AC50 5.012 µM (rising, partial curve)
- CCOC(=O)c1ccc(OC(=O)CCCCCN=C(N)N)cc1 : AC50 12.59 µM (falling, single point)